The text below walks through data of PubChem BioAssay AID2685 (National Center for Advancing Translational Sciences (NCATS), 2010).

This is one part of the list. The main result of the screen is listed elsewhere. These columns were measured beside it and carry no call. Compounds called inactive in the main read-out are mostly missing here. The note in brackets gives the kind of curve behind each potency; many fits are weak.

A short description of this assay: qHTS Assay for Lipid Storage Modulators in Drosophila S3 Cells.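 For cell number change: cells counted by Cell Tracker Red CMTPX staining in the red channel.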 The settings on record: BODIPY lipid droplet fluorescence, 18-24 h; for cell number change: measured here: cell count max response, cells fed with added oleic acid. An outline of the steps:
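Laser-scanning cytometry quantifies lipid droplet accumulation (500–530 nm total intensity; droplet/cell object ratio) in oleic acid-fed (400 uM added) Drosophila S3 cells treated with a concentration series. 20 uM Triacsin C defined 100% inhibition.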

Setting [1] is: measured here: cell number channel AC50, cells fed with added oleic acid.
The mark [2] stands for this setting: measured here: lipid fluorescence (Fed channel) AC50, cells fed with added oleic acid.

`CCCCn1c(O)c(C=NCc2ccc3c(c2)OCO3)c(=O)[nH]c1=O`: the cell number change is -34.5%. In addition, the concentration at half-maximal activity (AC50) under setting [1] is 14.6 µM [falling, single point]. For the same molecule, the AC50 under setting [2] is 16.4 µM [falling, single point].

As for `c1ccc2c(CNC3CCCCC3)c[nH]c2c1`, the cell number change was determined as 49.6%. The AC50 under setting [1] is 29.1 µM [rising, single point]. Besides, the AC50 under setting [2] is 0.651 µM [rising, single point].

As to `CCn1nc(-c2cccs2)nc2c(=O)n(C)c(=O)nc1-2`, the cell number change was -35.6%. Moreover, under setting [1], the AC50 is 29.1 µM [falling, single point]. Moreover, under setting [2], the AC50 is 20.6 µM [falling, single point].

As to `CCC(CO)NC(=O)C1C=C2c3cccc4[nH]cc(c34)CC2N(C)C1` (centres undefined), the cell number change is 1.72%.

Turning to `Cc1ccc(S(=O)(=O)N(c2cc(Cl)c(O)c(Cl)c2)P(=O)(OC(C)C)OC(C)C)cc1`, the AC50 under setting [2] was 0.13 µM [rising, partial curve, poor fit].

On to `CCc1ccccc1NC(=O)CN1CCN(C(=O)COc2ccccc2C#N)CC1`, for which the cell number change was -16.7%.

As to `N=c1sc2c(n1Cc1ccccc1)CCCC2`, the cell number change is -11.9%. Under setting [2], the concentration at half-maximal activity (AC50) was 23.1 µM [falling, single point].

For the molecule `CCN(CC)c1ccc(N=Cc2c(O)n(-c3ccccc3C)c(=O)[nH]c2=O)cc1`, the AC50 under setting [1] was 0.146 µM [rising, full curve, poor fit].

Turning to `O=c1c2ccccc2nc(/C=C/c2ccc(O)cc2)n1-c1cccc(O)c1`, the cell number change was 4.4%.

For `COC(=O)C1=C(c2ccc(C(C)=O)cc2)C[C@@H]2CC[C@H]1N2C(=O)NCCOc1ccccc1Cl`, the cell number change is -26.1%. In addition, under setting [2], the concentration at half-maximal activity (AC50) is 1.3 µM [rising, single point].

Regarding `COc1ccc(-n2c(SCCN(C)C)nc3ccccc3c2=O)cc1`, the cell number change is -5.76%. Besides, the AC50 under setting [2] is 0.0731 µM [rising, full curve, poor fit].

In the case of `CNC(C)(C)Cc1ccccc1`, the cell number change is -16.2%. In addition, under setting [2], the half-maximal activity concentration (AC50) was 0.206 µM [falling, full curve, poor fit].

Take `COC1C(OC(=O)c2ccc(C)[nH]2)C(O)C(Oc2ccc3c(O)c(NC(=O)c4ccc(O)c(CC=C(C)C)c4)c(=O)oc3c2Cl)OC1(C)C` (centres undefined): the cell number change is -16.1%. The AC50 under setting [2] was 29.1 µM [falling, single point].

As for `CCCCn1c(=O)c(C=Nc2ccc(Cl)cc2)c(O)n(Cc2ccco2)c1=O`, the cell number change is 45.4%. In addition, under setting [1], the AC50 is 14.6 µM [rising, partial curve]. For the same molecule, the AC50 under setting [2] is 16.4 µM [rising, partial curve].

With `CC[N+](CC)(CC)CCOc1cccc(OCC[N+](CC)(CC)CC)c1OCC[N+](CC)(CC)CC`, under setting [1], the half-maximal activity concentration (AC50) was 1.84 µM [falling, full curve, poor fit].

Regarding `O=C1NC(=O)N(CC2CCCO2)C(=O)/C1=C/c1cccs1` (centres undefined), the cell number change worked out at 3.98%.

As usually defined, the AC50 is the concentration giving half of the maximal activity seen. A lower AC50 goes with activity at low concentration.
